{
  "source": "PubChem BioAssay AID924",
  "about": "(National Center for Advancing Translational Sciences (NCATS), 2007)",
  "note": "What follows is the remainder of the data, with few or none of the hits. Records with an inconclusive call do not appear. Activity calls are given as the source filed them. Calls come from the whole dose curve; as a rule, active = well fitted cell-killing curve with a large enough effect; inconclusive = small, poorly fitted or top-dose-only effect; inactive = no such curve, though single readings can be large or run the other way.",
  "data": [
    {"experiment": "qHTS Screen for Compounds that Selectively Target Cancer Cells with p53 Mutations: Cytotoxicity of p53ts Cells at the Permissive Temperature;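 note: 0% = DMSO and -100% = full killing by reference compound; nearly all actives have a fitted effect of over 55% in size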", "details": "H1299-p53A138V at 32C, ATP luminescence viability, 24 h; at 46.1 µM (top of the series) unless noted", "text": "NIH Chemical Genomics Center [NCGC] NIH Molecular Libraries Screening Centers Network [MLSCN] MLSCN Grant: 1 X01 MH079844-01 Assay Submitter (PI): Dr. SUN, YI, University of Michigan NCGC Assay Overview: Synthetic Lethal Screen for Compounds to Kill Cancer Cells with p53 Mutation. Tumor suppressor gene p53 serves as a major cellular barrier against tumorigenesis. […] The goal of this screening is to identify small molecule probes that selectively kill cancer cells with mutations in p53. This screening was carried out using two lines of H1299 lung cancer cells. […] Concentration-responses of all the compounds in the library collection were determined in qHTS using the cell lines and temperature conditions as above.\nNCGC Assay Protocol Summary: Both the H1299-p53A138V and H1299-neo cell lines were provided by Dr.Yi Sun, a PI at the University Michigan. […] AC50 values were determined from concentration-response data modeled with the standard Hill equation. […] Detection; Luminescence; Viewlux plate reader Keywords: p53, synthetic lethal, cancer, cell viability, cytotoxicity, H1299 cell line, luminescence, MLSMR, MLSCN, NIH Roadmap, qHTS, NCGC", "values": [
      {"smiles": "Nc1nc2ccc(OC(F)(F)F)cc2s1", "activity change, negative = cytotoxicity": "inactive: -19.8% [at 20.6 µM]"},
      {"smiles": "CCOC(=O)c1ccc(NC(=O)CSc2nc3c(c(=O)n2CC)SC(C)C3)cc1", "note": "(configuration not stated)", "activity change, negative = cytotoxicity": "inactive: 48.9%"}
    ]}
  ]
}
